Variants at the background level are over-represented here.
Key:
biotinyl-Val-oxazolone = experiment: self-aminoacylation, catalytic enhancement (BVO) (fold over background); higher = more active; k-Seq, kA / k0A0; sequences stand for … in GGGAAUGGAUCCACAUCUACGAAUUC…UUCACUGCAGACUUGACGAAGCUG
Procedure, shortened: (§1)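 Working in 50 μL HEPES/NaCl/KCl/MgCl2/CaCl2 buffer with 5% acetonitrile at pH 6.9–7.0, mutagenized RNA pools (0.43 μM; 21-nt variable region) were reacted with 2–1250 μM of each biotinyl-aminoacyl-oxazolone for 90 minutes at room temperature. Streptavidin capture followed, with quantification by triplicate qPCR and Illumina sequencing. Catalytic enhancement is reported as median kA over the uncatalyzed rate, the low-activity peak of a bimodal Gaussian fit to the data.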

biotinyl-Trp-oxazolone = experiment: self-aminoacylation, catalytic enhancement (BWO) (fold over background); higher = more active; k-Seq, kA / k0A0; sequences stand for … in GGGAAUGGAUCCACAUCUACGAAUUC…UUCACUGCAGACUUGACGAAGCUG
Procedure, shortened: as §1

biotinyl-Leu-oxazolone = experiment: self-aminoacylation, catalytic enhancement (BLO) (fold over background); higher = more active; k-Seq, kA / k0A0; sequences stand for … in GGGAAUGGAUCCACAUCUACGAAUUC…UUCACUGCAGACUUGACGAAGCUG
Procedure, shortened: as §1

biotinyl-Ile-oxazolone = experiment: self-aminoacylation, catalytic enhancement (BIO) (fold over background); higher = more active; k-Seq, kA / k0A0; sequences stand for … in GGGAAUGGAUCCACAUCUACGAAUUC…UUCACUGCAGACUUGACGAAGCUG
Procedure, shortened: as §1

biotinyl-Phe-oxazolone = experiment: self-aminoacylation, catalytic enhancement (BFO) (fold over background); higher = more active; k-Seq, kA / k0A0; sequences stand for … in GGGAAUGGAUCCACAUCUACGAAUUC…UUCACUGCAGACUUGACGAAGCUG
Procedure, shortened: as §1

biotinyl-Met-oxazolone = experiment: self-aminoacylation, catalytic enhancement (BMO) (fold over background); higher = more active; k-Seq, kA / k0A0; sequences stand for … in GGGAAUGGAUCCACAUCUACGAAUUC…UUCACUGCAGACUUGACGAAGCUG
Procedure, shortened: as §1

Sequence | self-aminoacylation (biotinyl-Val-oxazolone) | self-aminoacylation (biotinyl-Trp-oxazolone) | self-aminoacylation (biotinyl-Leu-oxazolone) | self-aminoacylation (biotinyl-Ile-oxazolone) | self-aminoacylation (biotinyl-Phe-oxazolone) | self-aminoacylation (biotinyl-Met-oxazolone)
AAAUUUGCUAAUCGUCGCAAG [Fam3.1 aminoacylation ribozyme variant] | 1.89 | 1.54 | 1.79 | 1.76 | 1.51 | 1.65
AUUCACCUAGGUUAUCCGGUG [Fam2.2 aminoacylation ribozyme variant] | 3.77 | 5.66 | 8.66 | 3.8 | 42.3 | 7.05
AUUACCCUGAUCAUCGAGUGU [Fam2.1 aminoacylation ribozyme variant] | 2.24 | 5.04 | 3.28 | 1.81 | 5.33 | 4.23
CUACGUCAAAUAAUCGGUCUG [Fam1A.1 aminoacylation ribozyme variant] | 1.25 | 1.19 | 1.15 | 1.44 | 1.18 | 1.35
CCACCCUUCAAGCAAUCGAUC [Fam1B.1 aminoacylation ribozyme variant] | 0.796 | 0.612 | 0.535 | 0.557 | 1.06 | 0.499
CUACACUUCAAGCAAUCGUUC [Fam1B.1 aminoacylation ribozyme variant] | 0.762 | 0.833 | 0.624 | 0.713 | 1.04 | 0.535
UAAUUUGCUAAUAGUCGCAAG [Fam3.1 aminoacylation ribozyme variant] | 1.67 | 2.01 | 1.76 | 1.84 | 2.21 | 1.41
CUUACCCUGGUGAUCGAGUGA [Fam2.1 aminoacylation ribozyme variant] | 2.81 | 5.52 | 4.36 | 2.65 | 14.5 | 4.51
CCACAGUUCAAGCAAACGGUC [Fam1B.1 aminoacylation ribozyme variant] | 0.859 | 0.765 | 0.961 | 0.798 | 0.991 | 0.757
AAUGACCUAGGUCAUCGGGUG [Fam2.2 aminoacylation ribozyme variant] | 3.56 | 5.22 | 4.85 | 3.66 | 26.1 | 4.56
AAGUGUGCUAGUAGUCGCAAG [Fam3.1 aminoacylation ribozyme variant] | 1.15 | 0.683 | 0.868 | 0.86 | 0.87 | 0.889
CCACACUACAAGCAAUCGGUC [Fam1B.1 aminoacylation ribozyme variant] | 0.933 | 0.707 | 0.754 | 0.925 | 1.19 | 0.739
CUACUUCUGACAAUCGGUCUG [Fam1A.1 aminoacylation ribozyme variant] | 0.77 | 0.482 | 0.63 | 0.578 | 0.543 | 0.714
AAGUUUGCUAAUAGAAGCAAG [Fam3.1 aminoacylation ribozyme variant] | 1.06 | 0.802 | 0.697 | 1.03 | 1.7 | 1.12
AUUGCCCUGGUCAUCGAUUGA [Fam2.1 aminoacylation ribozyme variant] | 1.23 | 0.917 | 0.982 | 0.93 | 1.22 | 0.981
AUCCACCUAGAUCAUCGGGUG [Fam2.2 aminoacylation ribozyme variant] | 3.26 | 4.45 | 4.88 | 3.37 | 23.2 | 3.25
GUUACACUGGUCAUCGAGUGA [Fam2.1 aminoacylation ribozyme variant] | 4.18 | 8.81 | 6.76 | 4.91 | 28.9 | 6.79
CCACACUACAAGCAAUCGGAC [Fam1B.1 aminoacylation ribozyme variant] | 0.943 | 1.17 | 0.449 | 0.935 | 1.12 | 0.752
AUUCACCUGGGUCAUCGGAUG [Fam2.2 aminoacylation ribozyme variant] | 1.19 | 0.666 | 0.968 | 0.984 | 0.802 | 0.96
GUUACCCUGGCCAUCGAGUGA [Fam2.1 aminoacylation ribozyme variant] | 5 | 9.03 | 8.07 | 4.06 | 43.7 | 6.73
AUGCACCUAGGUCAUCGGGUU [Fam2.2 aminoacylation ribozyme variant] | 3.24 | 4.05 | 4.54 | 3.66 | 5.22 | 4.43
CUACUUCAGACAAUCUGUCUG [Fam1A.1 aminoacylation ribozyme variant] | 0.646 | 0.445 | 0.56 | 0.6 | 0.716 | 0.711
AUUACCCUGCUCAUCGAGUGG [Fam2.1 aminoacylation ribozyme variant] | 0.81 | 0.578 | 1.09 | 0.831 | 0.52 | 1
AAGUUUGCUAAAAGUCCCAAG [Fam3.1 aminoacylation ribozyme variant] | 0.834 | 1.05 | 0.866 | 1.04 | 1.43 | 0.96
AAGUUUGCUAAUAGACGCAAC [Fam3.1 aminoacylation ribozyme variant] | 0.928 | 1.05 | 1.04 | 0.915 | 1.54 | 0.928
CCGCACUGCAAGCAAUCGGUC [Fam1B.1 aminoacylation ribozyme variant] | 1.81 | 1.42 | 1.17 | 1.52 | 1 | 1.21

Sequence | self-aminoacylation (biotinyl-Val-oxazolone) | self-aminoacylation (biotinyl-Trp-oxazolone) | self-aminoacylation (biotinyl-Leu-oxazolone) | self-aminoacylation (biotinyl-Ile-oxazolone) | self-aminoacylation (biotinyl-Phe-oxazolone) | self-aminoacylation (biotinyl-Met-oxazolone)
CUACUUCGAACAAUCGGUCUA [Fam1A.1 aminoacylation ribozyme variant] | 0.743 | 0.62 | 0.854 | 0.926 | 0.547 | 0.833
UUACUUCACACAAUCGGUCUG [Fam1A.1 aminoacylation ribozyme variant] | 1.28 | 1.03 | 1.17 | 1.27 | 1.66 | 1.06
AUACACCUAGGUCACCGGGUG [Fam2.2 aminoacylation ribozyme variant] | 3.23 | 3.79 | 3.78 | 3.29 | 23.3 | 3.09
AAGUUUGCUAGGAGUCGCAAG [Fam3.1 aminoacylation ribozyme variant] | 0.745 | 1.02 | 0.459 | 0.788 | 0.649 | 0.673
CUACUUCAGACAAUCGCUCUG [Fam1A.1 aminoacylation ribozyme variant] | 0.941 | 0.853 | 0.921 | 0.916 | 0.627 | 1.07
AAGUUUGCUGAUAGUCGCAAC [Fam3.1 aminoacylation ribozyme variant] | 1.22 | 0.93 | 1.2 | 1.25 | 2 | 0.997
AAGUUUGCUAAUAGUCGCAGU [Fam3.1 aminoacylation ribozyme variant] | 1.34 | 3.14 | 1.66 | 1.33 | 8.27 | 1.91
CCACACUUCGAGCAACCGGUC [Fam1B.1 aminoacylation ribozyme variant] | 1.33 | 1.26 | 1.55 | 1.15 | 0.552 | 0.919
CUUCCUCAAACAAUCGGUCUG [Fam1A.1 aminoacylation ribozyme variant] | 0.905 | 1.06 | 0.827 | 0.739 | 1.15 | 0.789
AUCUACCUAGGUCAUCGGGUG [Fam2.2 aminoacylation ribozyme variant] | 6.18 | 8.66 | 12.1 | 6.54 | 51.1 | 10
AUUACGCUUGUCAUCGAGUGA [Fam2.1 aminoacylation ribozyme variant] | 2.36 | 4.03 | 3.93 | 2.6 | 4.09 | 3.16
CUACUUAAAACAAUCGGACUG [Fam1A.1 aminoacylation ribozyme variant] | 0.613 | 0.489 | 0.75 | 0.643 | 0.651 | 0.795
CCACUUCAAACAAUAGGUCUG [Fam1A.1 aminoacylation ribozyme variant] | 0.77 | 0.52 | 0.839 | 0.822 | 0.86 | 0.657
CUACACUUCAAGCCAUCGGUC [Fam1B.1 aminoacylation ribozyme variant] | 1.06 | 0.657 | 0.743 | 0.772 | 0.899 | 0.853
AAGUUUGCGAACAGUCGCAAG [Fam3.1 aminoacylation ribozyme variant] | 0.858 | 1.32 | 0.729 | 1.13 | 1.19 | 1.43
AAGUUUGCUAAUUGUCACAAG [Fam3.1 aminoacylation ribozyme variant] | 0.901 | 1.15 | 0.991 | 1.1 | 1.08 | 0.983
CUACGUCAAACAAGCGGUCUG [Fam1A.1 aminoacylation ribozyme variant] | 1.36 | 0.713 | 1.13 | 1.2 | 1.8 | 1.44
CCACACUUCUAGCAAUCCGUC [Fam1B.1 aminoacylation ribozyme variant] | 1.03 | 0.642 | 0.746 | 0.93 | 0.71 | 0.695
AUACUUCUAACAAUCGGUCUG [Fam1A.1 aminoacylation ribozyme variant] | 0.967 | 0.961 | 0.922 | 1.04 | 1.06 | 0.968
CCACACUACAAGCAAACGGUC [Fam1B.1 aminoacylation ribozyme variant] | 0.839 | 0.279 | 0.627 | 0.698 | 0.77 | 0.441
CCGCACUUCAAGCAAUAGGUC [Fam1B.1 aminoacylation ribozyme variant] | 0.581 | 0.607 | 0.548 | 0.559 | 0.892 | 0.598
CUACUUCAAAUAAUCUGUCUG [Fam1A.1 aminoacylation ribozyme variant] | 0.748 | 1.17 | 0.639 | 0.855 | 1.98 | 0.805
CUACUUCAUACAAUCCGUCUG [Fam1A.1 aminoacylation ribozyme variant] | 0.87 | 0.586 | 0.741 | 0.857 | 0.802 | 0.821
AUUACCCUGGUCCUCGAGUUA [Fam2.1 aminoacylation ribozyme variant] | 1.3 | 0.539 | 1.12 | 0.881 | 0.602 | 0.807
CUACUUCACACAAUCGGGCUG [Fam1A.1 aminoacylation ribozyme variant] | 1.31 | 1.55 | 1.21 | 1.46 | 1.01 | 1.65

Source: the supplement of paper PMC9233669
